{"source": "PubChem BioAssay AID686938 (Drosophila RNAi Screening Center, 2013)", "purpose": "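Knock-downs reducing store-operated calcium influx in Drosophila cells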 (primary screen)", "cell system": "Drosophila S2R+ cells", "reagents": "long dsRNA against Drosophila genes, about 0.25 µg dsRNA per well, roughly 10,000 cells", "duration": "5 days of knock-down before the calcium assay", "conditions": "thapsigargin (SERCA pump blocker) to empty calcium stores; entry signal taken 4 min after adding it", "measurement": "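Duplicate raw fluo-4 intensities per well from a plate reader, at rest and four minutes after thapsigargin emptied calcium stores; entry-to-rest ratio filled for only some wells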", "scale": "calcium entry signal: higher = stronger calcium signal after store depletion; resting calcium signal: higher = higher resting calcium signal", "units": "calcium entry signal in fluorescence units; resting calcium signal in fluorescence units", "rule for the call": "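Hit if the duplicate-averaged plate z-score for entry over resting signal is under −3; wells with weak total dye signal (Fmax z < −2) or more than 5 off-targets removed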", "calls": "active = strongly reduced calcium entry; inactive = no strong reduction", "note": "The deposit covers about 23,000 reagents; shown is an unselected part of those with a known target gene and a result. In the full data, 75 (0.33%) got an active call. 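Raw plate signals without normalisation; calls rest on plate z-scores that were not deposited; ratio present for only 364 wells.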 Names joined by + are all predicted targets of the reagent. Reagent sequences are not shown. Not stated in the record: the dose of the treatment."}
{"gene": "Srx", "dsRNA": "DRSC20005", "calcium entry signal, replicate 1": 3.29e7, "calcium entry signal, replicate 2": 3.70e7, "resting calcium signal, replicate 1": 1.70e7, "resting calcium signal, replicate 2": 1.66e7, "outcome": "inactive"}
{"gene": "CG9083 + Tpc2", "dsRNA": "DRSC04625", "calcium entry signal, replicate 1": 2.65e7, "resting calcium signal, replicate 1": 1.33e7, "outcome": "inactive"}
{"gene": "Alg7", "dsRNA": "DRSC02833", "calcium entry signal, replicate 1": 4.04e7, "resting calcium signal, replicate 1": 2.27e7, "outcome": "inactive"}
{"gene": "Alg7", "dsRNA": "DRSC02834", "calcium entry signal, replicate 1": 4.23e7, "calcium entry signal, replicate 2": 3.49e7, "resting calcium signal, replicate 1": 2.07e7, "resting calcium signal, replicate 2": 1.76e7, "outcome": "inactive"}
{"gene": "conv", "dsRNA": "DRSC07213", "calcium entry signal, replicate 1": 2.20e7, "calcium entry signal, replicate 2": 3.26e7, "resting calcium signal, replicate 1": 1.20e7, "resting calcium signal, replicate 2": 1.42e7, "outcome": "inactive"}
{"gene": "Ncc69", "dsRNA": "DRSC10412", "calcium entry signal, replicate 1": 5.11e7, "calcium entry signal, replicate 2": 4.42e7, "resting calcium signal, replicate 1": 3.56e7, "resting calcium signal, replicate 2": 1.90e7, "outcome": "inactive"}
{"gene": "Ncc69", "dsRNA": "DRSC10413", "calcium entry signal, replicate 1": 3.04e7, "calcium entry signal, replicate 2": 3.46e7, "resting calcium signal, replicate 1": 1.67e7, "resting calcium signal, replicate 2": 1.46e7, "outcome": "inactive"}
{"gene": "Tsp42Eb + CG30160", "dsRNA": "DRSC04961", "calcium entry signal, replicate 1": 1.94e7, "calcium entry signal, replicate 2": 2.46e7, "resting calcium signal, replicate 1": 1.01e7, "resting calcium signal, replicate 2": 1.08e7, "outcome": "inactive"}
{"gene": "Tsp42Eb + CG30160", "dsRNA": "DRSC06791", "calcium entry signal, replicate 1": 2.71e7, "calcium entry signal, replicate 2": 3.39e7, "resting calcium signal, replicate 1": 1.31e7, "resting calcium signal, replicate 2": 1.44e7, "outcome": "inactive"}
{"gene": "CG2321", "dsRNA": "DRSC15439", "calcium entry signal, replicate 1": 4.47e7, "calcium entry signal, replicate 2": 4.78e7, "resting calcium signal, replicate 1": 1.98e7, "resting calcium signal, replicate 2": 2.21e7, "outcome": "inactive"}
{"gene": "betaNACtes6", "dsRNA": "DRSC22925", "calcium entry signal, replicate 1": 3.75e7, "calcium entry signal, replicate 2": 3.12e7, "resting calcium signal, replicate 1": 2.05e7, "resting calcium signal, replicate 2": 1.46e7, "outcome": "inactive"}
{"gene": "Mdr65", "dsRNA": "DRSC11220", "calcium entry signal, replicate 1": 2.97e7, "calcium entry signal, replicate 2": 4.70e7, "resting calcium signal, replicate 1": 1.48e7, "resting calcium signal, replicate 2": 2.09e7, "outcome": "inactive"}
{"gene": "CG15333", "dsRNA": "DRSC18016", "calcium entry signal, replicate 1": 2.88e7, "calcium entry signal, replicate 2": 4.21e7, "resting calcium signal, replicate 1": 1.50e7, "resting calcium signal, replicate 2": 2.01e7, "outcome": "inactive"}
{"gene": "CG15333", "dsRNA": "DRSC18153", "calcium entry signal, replicate 1": 2.57e7, "calcium entry signal, replicate 2": 4.00e7, "resting calcium signal, replicate 1": 1.32e7, "resting calcium signal, replicate 2": 1.88e7, "outcome": "inactive"}

Next part, starting with the last 2 of the part before.
{"gene": "CG15333", "dsRNA": "DRSC18016", "calcium entry signal, replicate 1": 2.88e7, "calcium entry signal, replicate 2": 4.21e7, "resting calcium signal, replicate 1": 1.50e7, "resting calcium signal, replicate 2": 2.01e7, "outcome": "inactive"}
{"gene": "CG15333", "dsRNA": "DRSC18153", "calcium entry signal, replicate 1": 2.57e7, "calcium entry signal, replicate 2": 4.00e7, "resting calcium signal, replicate 1": 1.32e7, "resting calcium signal, replicate 2": 1.88e7, "outcome": "inactive"}
{"gene": "Cap-G", "dsRNA": "DRSC06652", "calcium entry signal, replicate 1": 2.30e7, "calcium entry signal, replicate 2": 3.38e7, "resting calcium signal, replicate 1": 1.17e7, "resting calcium signal, replicate 2": 1.59e7, "outcome": "inactive"}
{"gene": "Cap-G", "dsRNA": "DRSC06653", "calcium entry signal, replicate 1": 2.49e7, "calcium entry signal, replicate 2": 3.13e7, "resting calcium signal, replicate 1": 1.21e7, "resting calcium signal, replicate 2": 1.32e7, "outcome": "inactive"}
{"gene": "Cap-G", "dsRNA": "DRSC21805", "calcium entry signal, replicate 1": 3.55e7, "calcium entry signal, replicate 2": 2.77e7, "resting calcium signal, replicate 1": 2.12e7, "resting calcium signal, replicate 2": 1.91e7, "outcome": "inactive"}
{"gene": "pasi1", "dsRNA": "DRSC16299", "calcium entry signal, replicate 1": 2.11e7, "calcium entry signal, replicate 2": 2.74e7, "resting calcium signal, replicate 1": 1.38e7, "resting calcium signal, replicate 2": 3.75e7, "outcome": "inactive"}
{"gene": "pasi1", "dsRNA": "DRSC22385", "calcium entry signal, replicate 1": 3.35e7, "calcium entry signal, replicate 2": 4.54e7, "resting calcium signal, replicate 1": 1.58e7, "resting calcium signal, replicate 2": 2.22e7, "outcome": "inactive"}
{"gene": "bou", "dsRNA": "DRSC17924", "calcium entry signal, replicate 1": 3.57e7, "calcium entry signal, replicate 2": 5.33e7, "resting calcium signal, replicate 1": 1.86e7, "resting calcium signal, replicate 2": 2.30e7, "outcome": "inactive"}
{"gene": "Syx8", "dsRNA": "DRSC10402", "calcium entry signal, replicate 1": 3.89e7, "calcium entry signal, replicate 2": 2.79e7, "resting calcium signal, replicate 1": 2.07e7, "resting calcium signal, replicate 2": 1.35e7, "outcome": "inactive"}
{"gene": "Syx8", "dsRNA": "DRSC22498", "calcium entry signal, replicate 1": 3.70e7, "calcium entry signal, replicate 2": 3.22e7, "resting calcium signal, replicate 1": 2.32e7, "resting calcium signal, replicate 2": 1.58e7, "outcome": "inactive"}
